Results from patent US11332395B2, “Sanitary food washing stage in food production” (CHEMTREAT, INC., priority 2019, dated 2022).
Where two headings read alike, the source gives them in different places.

What was measured:
[1] = spray table water, ORP at time 0 162 mV
Procedure: Water samples were taken from the spray table of a sugar beet factory. […] The hydrogen peroxide concentration was measured periodically over a 60 minute period. The oxidation-reduction potential (ORP) was measured over the same period.

[2] = flume return water, ORP at time 0 170 mV
Procedure: Water samples were taken from the flume return (clarifier inlet) in a sugar beet factory. […] The hydrogen peroxide concentration was measured periodically over a 60 minute period. The oxidation-reduction potential (ORP) was measured over the same period.

[3] = initial H2O2 dose 60 ppm, time 5 min
[4] = initial H2O2 dose 60 ppm, time 30 min
[5] = initial H2O2 dose 60 ppm, time 45 min
[6] = initial H2O2 dose 120 ppm, time 5 min
[7] = initial H2O2 dose 120 ppm, time 30 min
[8] = initial H2O2 dose 120 ppm, time 45 min
[9] = initial H2O2 dose 180 ppm, time 5 min
[10] = initial H2O2 dose 180 ppm, time 30 min
[11] = initial H2O2 dose 180 ppm, time 45 min

## OO [H2O2, hydrogen peroxide]
[1]; [3]
  ORP: 216 mV
[1]; [4]
  ORP: 220 mV
[1]; [5]
  ORP: 231 mV
[1]; [6]
  ORP: 242 mV
[1]; [7]
  ORP: 215 mV
[1]; [8]
  ORP: 226 mV
[1]; [9]
  ORP: 256 mV
[1]; [10]
  ORP: 217 mV
[1]; [11]
  ORP: 222 mV
[2]; [3]
  ORP: 214 mV
[2]; [4]
  ORP: 211 mV
[2]; [5]
  ORP: 215 mV
[2]; [6]
  ORP: 230 mV
[2]; [7]
  ORP: 220 mV
[2]; [8]
  ORP: 222 mV
[2]; [9]
  ORP: 240 mV
[2]; [10]
  ORP: 225 mV
[2]; [11]
  ORP: 227 mV
